According to PubChem BioAssay AID651768 (National Center for Advancing Translational Sciences (NCATS), 2012):
The whole screen tested about 360,000 compounds, of which about 1,700 (0.47%) were called active. The shares of active, inactive and inconclusive entries below differ from those in the screen. Calls follow the shape of the dose curve; as a rule, active = well fitted inhibition curve with a large enough effect; inconclusive = small, poorly fitted or top-dose-only effect; inactive = no such curve, though single readings can be large or run the other way. Potencies beside an inconclusive call are fits to weak or partial responses and may not hold up.
% is scaled to controls: 0 for no effect and ±100 for the full control effect; potency is read from the fitted curve at half-maximal effect.
Also: nearly all actives have a fitted effect of over 55% in size.

Protein sequences, listed by entry. Tags and fused reporters are not part of them.
UniProt Q14191, whole entry, looked up: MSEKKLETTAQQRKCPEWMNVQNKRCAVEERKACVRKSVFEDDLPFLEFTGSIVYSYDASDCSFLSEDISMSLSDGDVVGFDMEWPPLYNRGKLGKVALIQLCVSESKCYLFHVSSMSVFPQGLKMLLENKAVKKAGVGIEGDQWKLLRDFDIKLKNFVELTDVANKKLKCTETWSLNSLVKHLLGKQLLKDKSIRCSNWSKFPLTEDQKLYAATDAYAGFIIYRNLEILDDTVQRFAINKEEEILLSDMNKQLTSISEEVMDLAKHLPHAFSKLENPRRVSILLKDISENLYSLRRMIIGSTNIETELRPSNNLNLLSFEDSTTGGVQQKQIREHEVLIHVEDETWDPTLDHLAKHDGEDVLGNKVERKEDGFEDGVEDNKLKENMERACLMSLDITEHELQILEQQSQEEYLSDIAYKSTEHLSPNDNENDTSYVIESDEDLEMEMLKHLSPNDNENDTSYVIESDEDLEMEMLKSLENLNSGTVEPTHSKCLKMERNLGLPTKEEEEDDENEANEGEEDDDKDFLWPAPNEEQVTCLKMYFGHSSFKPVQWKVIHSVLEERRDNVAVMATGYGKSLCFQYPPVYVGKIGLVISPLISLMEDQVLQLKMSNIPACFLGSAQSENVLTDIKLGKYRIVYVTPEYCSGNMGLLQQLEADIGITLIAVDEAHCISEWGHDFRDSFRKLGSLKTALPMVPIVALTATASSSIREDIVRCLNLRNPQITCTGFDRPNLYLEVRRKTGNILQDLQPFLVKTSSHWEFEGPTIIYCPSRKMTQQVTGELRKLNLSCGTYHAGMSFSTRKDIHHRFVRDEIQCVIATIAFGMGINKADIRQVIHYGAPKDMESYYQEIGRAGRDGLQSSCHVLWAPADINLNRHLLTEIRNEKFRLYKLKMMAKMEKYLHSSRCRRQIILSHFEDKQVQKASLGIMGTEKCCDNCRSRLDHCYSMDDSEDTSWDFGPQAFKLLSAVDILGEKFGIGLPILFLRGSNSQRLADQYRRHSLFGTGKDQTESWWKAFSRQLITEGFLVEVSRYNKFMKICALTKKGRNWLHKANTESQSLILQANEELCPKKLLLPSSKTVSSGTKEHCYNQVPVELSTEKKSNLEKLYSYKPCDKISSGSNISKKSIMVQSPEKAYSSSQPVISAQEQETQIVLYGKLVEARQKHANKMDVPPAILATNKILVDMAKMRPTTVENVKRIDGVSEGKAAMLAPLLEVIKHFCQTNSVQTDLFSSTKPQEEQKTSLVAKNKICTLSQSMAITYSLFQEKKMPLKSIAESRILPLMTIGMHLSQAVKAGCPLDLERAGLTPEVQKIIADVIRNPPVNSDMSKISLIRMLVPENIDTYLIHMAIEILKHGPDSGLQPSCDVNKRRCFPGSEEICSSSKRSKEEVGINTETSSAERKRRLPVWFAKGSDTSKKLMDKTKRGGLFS

What follows are compounds tested against Bifunctional 3'-5' exonuclease/ATP-dependent helicase WRN (Homo sapiens) (UniProt Q14191) (assay: qHTS for Inhibitors of WRN Helicase). Conditions: WRN helicase unwinding, fluorescent forked duplex, kinetic; activity change, negative = inhibition: at 114 µM (top of the series) unless noted.
Method in brief: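 Screening of the MLSMR collection measured strand separation of a quenched forked DNA duplex (100 nM) by 20 nM WRN with 2 mM ATP, all final. Compounds were preincubated with enzyme 15 min at room temperature.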
With `COc1ccc(C2(CCN)CC(C)N(C)CC2C)cc1` (configuration not stated) the activity change, negative = inhibition was inconclusive: -36% [inhibitor] [at 57.1 µM].
For `N#Cc1c(N2CCCCC2)nc(N)c2c(N)nc(SCC(=O)O)cc12`, the Potency was active: 50.1 µM.
For `O=C(O)CCN1C(=O)/C(=C\c2ccc(-c3nc4ccccc4s3)o2)SC1=S`, the Potency was inconclusive: 63.1 µM [inhibitor, partial curve].
With `C#CCOCCOCCOCCNc1nc(N2CCN(C(=O)CCCCCCCCCCNC(=O)Cn3cc(C[C@@H](C)O)nn3)CC2)nc(N2CCN(C(=O)CCCCCCCCCCNC(=O)[C@H](CCCN=C(N)N)n3cc(C[C@@H](C)CC)nn3)CC2)n1` the Potency was inconclusive: 28.2 µM [inhibitor, single point].
`CCOC(=O)C1=C(C)NC2=C(C(=O)c3ccccc32)C1c1ccc([N+](=O)[O-])o1` (configuration not stated) was tested, and the Potency was inconclusive: 11.2 µM [inhibitor, full curve].
With `CCOC(=O)c1sc(=S)n(-c2cc(OC)ccc2OC)c1N` the Potency was inconclusive: 56.2 µM [inhibitor, partial curve].
In the case of `CCSc1ccc(-c2cc(NC=O)c3ncc(-c4cccc(C(=O)NCCN(C)C)c4)n3c2)cc1`, the Potency is reported as inconclusive: 35.5 µM [inhibitor, single point].
`CCCCCOC(=O)CCN1C(=O)/C(=C2\SC(=S)N(CCC(=O)OCCCCC)C2=O)SC1=S` was tested, and the Potency was inconclusive: 3.98 µM [inhibitor, full curve, poor fit].
With `CC(C)NC(=O)C1(C)CSCC(=O)N1Cc1cccc(C(F)(F)F)c1` (configuration not stated) the “activity change, negative = inhibition” value was inactive: 0.805%.
With `O=S(=O)(NCc1cccs1)c1ccc(Cl)s1` the “activity change, negative = inhibition” value was inactive: 0.859%.
With `COc1ccc(-n2nc3c(c2NC(=O)COc2ccccc2OC)CS(=O)(=O)C3)cc1` the “activity change, negative = inhibition” value was inactive: -1.76%.
In the case of `COc1cc(/C=N\NC(=O)OC(C)(C)C)ccc1OC(=O)c1ccco1`, the Potency is reported as inconclusive: 25.1 µM [inhibitor, single point].
With `O=c1c2ccccc2c(/C=N/c2n[nH]c(CCCO)n2)c(O)n1-c1ccccc1Cl` the Potency was inconclusive: 25.1 µM [inhibitor, partial curve].
`C=C(C)CNC(=S)N/N=C(\C)c1ccc(-n2ccnc2)cc1` was tested, and the Potency was inconclusive: 25.1 µM [inhibitor, partial curve].
In the case of `CN1CCN(c2cc(N3CCN(C(=O)c4ccco4)CC3)c3c4c(onc24)-c2ccccc2C3=O)CC1`, the Potency is reported as inconclusive: 89.1 µM [inhibitor, partial curve].
With `O=C(CN1C(=O)NC2(CCCC2)C1=O)N1CCN(c2ccccc2O)CC1` the Potency was inconclusive: 17.8 µM [inhibitor, full curve, poor fit].
For `CC(=O)Nc1ccc(S(=O)(=O)NCc2ccc3c(c2)cc(C)n3C)cc1`, the Potency was inconclusive: 44.7 µM [inhibitor, partial curve].
`COc1cc(/C=C(\C#N)C(=O)c2ccc(O)c(O)c2)cc(I)c1O` was tested, and the Potency was active: 1.19 µM.
`Nc1cc(OC(=O)c2ccco2)nn1S(=O)(=O)c1ccc(F)cc1` was tested, and the Potency was inconclusive: 50.1 µM [inhibitor, partial curve].
With `CSC1=NSC2=NC(=O)/C(=C/c3coc4ccccc4c3=O)C(=N)N12` the Potency was active: 35.5 µM.
In the case of `O=C(CSc1nnc(-c2ccncc2)o1)c1cccc([N+](=O)[O-])c1`, the Potency is reported as inconclusive: 89.1 µM [inhibitor, single point].
With `CCCCC(C(=O)NC1CCCC1)N(C(=O)c1snc(C(N)=O)c1N)c1ccc(OCC)cc1` (configuration not stated) the “activity change, negative = inhibition” value was inactive: -2.46%.
`O=C(O)CCNc1cc(N2CCN(C(=O)c3ccco3)CC2)c2noc3c2c1C(=O)c1ccccc1-3` was tested, and the Potency was active: 17.8 µM.
`Nc1c(N(CCC2=CCCCC2)C(=O)Cc2ccccc2F)c(=O)[nH]c(=O)n1Cc1ccccc1` was tested, and the “activity change, negative = inhibition” value was inactive: 0.379%.
`O=[N+]([O-])c1cc(S(=O)(=O)C(F)(F)F)ccc1Sc1nc2ccccc2[nH]1` was tested, and the Potency was inconclusive: 70.8 µM [inhibitor, single point].
With `O=C(NC1CCCCC1)Sc1ccc(Cl)cc1` the Potency was inconclusive: 50.1 µM [inhibitor, partial curve].
For `O=C1CC(c2ccc(Cl)cc2)CC(=O)C1CS(=O)(=O)c1ccccc1` (configuration not stated), the “activity change, negative = inhibition” value was inactive: -7.37% [at 57.1 µM].
For `C=CCSc1nc2ccsc2c(=O)n1-c1cccnc1`, the “activity change, negative = inhibition” value was inactive: 11.8% [at 57.1 µM].
With `O=C(Nc1ccc(NC(=S)NC(=O)c2cccs2)cc1)c1ccco1` the Potency was inconclusive: 50.1 µM [inhibitor, partial curve].
`Cc1nnc2ccc(-c3ccc(NC(=O)Cc4cccs4)cc3)nn12` was tested, and the Potency was inconclusive: 50.1 µM [inhibitor, partial curve].
`COc1cccc(-n2cnc3c(sc4nc(N5CCOCC5)c5c(c43)CCCC5)c2=O)c1` was tested, and the “activity change, negative = inhibition” value was inactive: 8.42%.
`COc1ccc(C)cc1N(C(=O)COc1cccc(F)c1)c1nc2ccccc2s1` was tested, and the Potency was inconclusive: 11.2 µM [inhibitor, partial curve].
With `COc1ccc(C(=O)Nc2nc3ccccc3s2)c(OC)c1` the Potency was active: 50.1 µM.
In the case of `CCOc1cc(/C=C2\C(=N)N3N=C(C)SC3=NC2=O)ccc1OCCOc1cccc(OC)c1`, the “activity change, negative = inhibition” value is reported as inactive: -2.13%.
With `COc1cc(C(=O)NCCc2ccc(F)cc2)c([N+](=O)[O-])cc1OC` the “activity change, negative = inhibition” value was inactive: 7.13%.
For `COc1ccc2c(c1)CCN1C2CCN2C(=O)CCC21` (configuration not stated), the “activity change, negative = inhibition” value was inactive: 9%.
For `COc1cccc(C(=O)NCC(=O)OCC(=O)Nc2ncc(Cl)cc2Cl)c1`, the Potency was inconclusive: 56.2 µM [inhibitor, partial curve].
With `O=C(CC1S/C(=N/N=C/C=C/c2ccccc2)NC1=O)Nc1ccc(C(=O)O)cc1` (configuration not stated) the “activity change, negative = inhibition” value was inactive: -19.2%.
`O=C(CCc1nc(-c2ccc(Cl)cc2)no1)NCc1ccccc1CN1CCOCC1` was tested, and the “activity change, negative = inhibition” value was inactive: -3.25%.
With `CCCCn1c(Cl)nc2c1c(=O)n(C)c(=O)n2C` the “activity change, negative = inhibition” value was inactive: 7.65%.
For `COc1ccccc1N1CCN(C(=O)c2cccc(S(=O)(=O)N3c4ccccc4CC3C)c2)CC1` (configuration not stated), the Potency was inconclusive: 15.8 µM [inhibitor, single point].
For `CN1/C(=C\C=C2/SC(=S)N(CC(=O)O)C2=O)C(C)(C)c2ccccc21`, the Potency was active: 50.1 µM.
With `CC(C)CN(C(=O)COC(=O)COc1ccc2ccccc2c1)c1c(N)n(Cc2ccccc2)c(=O)[nH]c1=O` the “activity change, negative = inhibition” value was inactive: -0.543%.
In the case of `CCOc1ccc2oc(C(=O)Nc3ccc4c(c3)OCO4)c(C)c2c1`, the Potency is reported as inconclusive: 100 µM [inhibitor, single point].
`NC(=S)N=Nc1c(O)cc(O)c2[nH]c(=O)ccc12` was tested, and the Potency was active: 15.8 µM.
With `COCCn1c(=NC(=O)c2cc3ccccc3oc2=O)sc2cc(S(N)(=O)=O)ccc21` the Potency was inconclusive: 15.8 µM [inhibitor, single point].
With `COc1ccc(N2CCN(C(=O)CNC(=O)Cc3ccc(Cl)cc3)CC2)cc1` the Potency was inconclusive: 89.1 µM [inhibitor, single point].
For `O=C(NCc1ccccc1)C(=O)Nc1nc(-c2ccccc2)cs1`, the Potency was inconclusive: 5.62 µM [inhibitor, full curve, poor fit].
`N#Cc1c(-c2cccc(Br)c2)cc(-c2ccco2)[nH]c1=O` was tested, and the Potency was inconclusive: 50.1 µM [inhibitor, partial curve].
In the case of `Cc1cc(C)c(Nc2cc(S(=O)(=O)O)c(N)c3c2C(=O)c2ccccc2C3=O)c(C)c1`, the Potency is reported as active: 56.2 µM.
For `Cc1cc(SCC(=O)Nc2ccc3[nH]c(=O)[nH]c3c2)nc2ccccc12`, the Potency was inconclusive: 50.1 µM [inhibitor, partial curve].
With `O=C(c1ccc2nc[nH]c2c1)N1CCN(S(=O)(=O)c2cccc(F)c2)CC1` the Potency was inconclusive: 89.1 µM [inhibitor, single point].
`CN(C)CCNC(=O)c1cccc(-c2cnc3c(NC=O)cc(/C=C/c4ccccc4)cn23)c1` was tested, and the Potency was inconclusive: 28.2 µM [inhibitor, partial curve].
With `COc1cc(/C=C2\C(=N)N3N=C(C)SC3=NC2=O)cc(Cl)c1OCCOc1ccc(NC(C)=O)cc1` the activity change, negative = inhibition was inactive: -13.1% [at 11.6 µM].
In the case of `O=C(Oc1nsnc1N1CCOCC1)N(c1ccccc1)c1ccccc1`, the “activity change, negative = inhibition” value is reported as inactive: -1.4%.
With `Cc1nc2c(C(=O)NCc3ccc4c(c3)OCO4)c[nH]n2c(=O)c1Cc1ccccc1F` the Potency was inconclusive: 50.1 µM [inhibitor, partial curve].
For `O=C(COC(=O)Cn1cnc2ccccc2c1=O)NNC(=O)c1ccc(Br)cc1`, the Potency was inconclusive: 20 µM [inhibitor, full curve, poor fit].
For `CCn1cc(C(=O)O)c(=O)c2cc(F)c(N3CCN(S(=O)(=O)c4ccc(NC(=O)OC)cc4)CC3)cc21`, the Potency was inconclusive: 56.2 µM [inhibitor, partial curve].
With `CC(=O)c1cccc(NC(=O)c2ccc(-c3ccccc3[N+](=O)[O-])o2)c1` the “activity change, negative = inhibition” value was inactive: -20.8% [at 57.1 µM].
For `Cc1cc(C)c(/C=N/NC(=O)c2nnn(-c3nonc3N)c2COc2ccc(F)cc2)c(C)c1`, the Potency was inconclusive: 3.16 µM [inhibitor, full curve, poor fit].
`O=C(c1ccc2c(=O)n3c(nc2c1)CCCCC3)N1CCN(C(c2ccccc2)c2ccccc2)CC1` was tested, and the “activity change, negative = inhibition” value was inactive: -19.7%.
For `CC(=O)NC(c1ccccc1)c1nc(/C=C/c2ccccc2)cs1` (configuration not stated), the “activity change, negative = inhibition” value was inactive: -5.42%.
`O=C(O)CCS(=O)(=O)c1cccc2cccnc12` was tested, and the “activity change, negative = inhibition” value was inactive: 4.6%.
In the case of `O=[N+]([O-])c1ccccc1N=Nc1ccc(O)cc1O`, the Potency is reported as inconclusive: 56.2 µM [inhibitor, partial curve].
`CCc1nnc(NS(=O)(=O)c2ccc(NC(=S)NC(=O)/C=C/c3cccs3)cc2)s1` was tested, and the Potency was inconclusive: 25.1 µM [inhibitor, single point].
In the case of `NC(=O)c1ccsc1NC(=O)COc1ccccc1`, the Potency is reported as inconclusive: 70.8 µM [inhibitor, partial curve].
In the case of `O=C(O)c1cc(NC(=O)c2cccc(N3C(=O)c4ccccc4C3=O)c2)cc(C(=O)O)c1`, the Potency is reported as inconclusive: 44.7 µM [inhibitor, partial curve].
